The values are deposited in ChEMBL (CHEMBL3988442, “University of Dundee, Small-Polar-MMV Screening Library” (2021)).

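Cell assay of Leishmania donovani living inside macrophages; the read-out is not stated. Concentration: 30 µM. Direction is inferred from retests: higher values go with stronger inhibition. Size under these conditions: about 69,000 compounds, about 1,000 of them at 50% or above in at least one test.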

Each number is a percent effect as filed.
The record does not define 0% and 100%; most values in the screen are far below 50% and negative numbers occur (in some assays of this library far below -100).
The compounds are a random part of those screened.
Two or more numbers in one place are separate tests of the same structure; such repeats can differ widely.

Compound,effect
CSCC[C@H](NC(C)=O)c1nc(CCc2ccccc2)n[nH]1,10.23%
Cc1ccc(CN2CCn3c(C(=O)N(C)C)cnc3C2)cc1.O=C(O)C(F)(F)F,28.16%
CCCc1nc(C)cc(N2CCC3(CCC(=O)N(CC(N)=O)C3)CC2)n1,9.212%
c1ncn(Cc2nnc(C3CCN(CC4CC4)CC3)n2C2CC2)n1,21.31% and 0.6665%
O=C(O)C(F)(F)F.O=C(O)C(F)(F)F.[H][C@@]12CCN(Cc3ccc4c(c3)OCO4)C[C@]1([H])[C@@H](CN1CCCC1)OC2,21.91%
CCn1cc(NC(=O)c2cccc(OCC(F)(F)F)n2)cn1,5.231%
CC(=O)NCCCC(=O)NC1(c2ccc(Cl)c(Cl)c2)CC1,-13.07%
O=C1CC(C(=O)NCc2ccccc2Oc2ccccc2F)CCN1 (stereo not drawn),15.94%
CNC(=O)c1cccc(CNC(C)c2ccc(F)cc2N(C)C)c1 (stereo not drawn),5.727%
O=C(c1ccc(Cl)cc1)N1CC2(CCNC2)OCc2ccccc21 (stereo not drawn),67.31%
CCC1c2ccccc2CCN1CCNS(C)(=O)=O (stereo not drawn),12.41%
O=C(O)C(F)(F)F.[H][C@@]12CCN(c3nncs3)[C@@]1([H])CCN2C(=O)N(C)C,13.21%
O=C(O)C(F)(F)F.O=C(O)C(F)(F)F.O=S1(=O)c2ccccc2C2(CCN(Cc3cccnc3)C2)N1CC1CC1 (stereo not drawn),0.4751%
CC(C)N1CCCCC1c1cncc(Cl)n1 (stereo not drawn),-6.293%
Cl.Cn1nc(C2CCN(C(=O)Cc3cccc(F)c3)CC2)c2cccnc21,32.39%
CC(=O)N(Cc1noc(C)n1)C1CCN(Cc2cnc(C)s2)C1 (stereo not drawn),-3.041%
CN(CCC(=O)N1CCc2sccc2C1)Cc1cc(Br)cs1,-56.77%
COc1cccn(CC(=O)N2CCC3(CCNCC3)C2)c1=O,-21.35%
O=C(NCCCc1nnc2ccccn12)c1ccccc1C1CCNC1 (stereo not drawn),20.67%
CC(C)(C)NC(=O)c1cnc2n1CCCC2,24.36%
CC(C)c1nc(CN2CCC(c3ccnn3CCO)CC2)no1,0.4771%
CC(C)CC(=O)NS(=O)(=O)c1ccc(C#N)cc1C(F)(F)F,16.88%
COc1ccc(N(Cc2ccco2)C(=O)COC(C)C)cc1F,2.691%
Cn1ncc2c1CCCC2NCc1cccc(OC2CCCC2)c1 (stereo not drawn),-20.13%
COCCN1CCC(Cc2cnc(-c3ccccc3C(=O)O)cn2)CC1,-13.84% and -2.655%
Cn1ccnc1CN1CCN(CC(O)c2ccc(F)c(F)c2)CC1 (stereo not drawn),-2.799%
CC(=O)NC1CCCN(Cc2ccc(OCc3ccccn3)cc2)C1 (stereo not drawn),8.313%
COc1cc(NC2CCCNC2)cc(OC)c1 (stereo not drawn),-0.411%
COCCN(Cc1ccccc1Cl)C(=O)c1c(C)cc(C)[nH]c1=O,6.258%
CCN(CC)c1ccc2ccc(C(=O)NC3CC3)cn12,10.07%
COc1ccc(C)cc1C(C)NC(=O)CCn1cncn1 (stereo not drawn),-46.57%
O=C(NCCCn1nc2ccccn2c1=O)NC1CCC(O)CC1 (stereo not drawn),-0.537%
O=C(O)C(F)(F)F.O=C(O)C(F)(F)F.O=C(O)c1c(-c2ccncc2)ncc2c1CCN(C1CCOC1)C2 (stereo not drawn),15.66%
CS(=O)(=O)N1CCc2c(nnn2CC2CC2)C1COCC1CC1 (stereo not drawn),18.76% and 20.85%
OC(COCc1ccccc1)CN1CCC(c2ccn[nH]2)CC1 (stereo not drawn),4.331%
Cn1cc(CN2CCCC3(CCN(Cc4cccnc4)C3=O)C2)cn1 (stereo not drawn),33.88%
[H][C@@]12C[C@H](C(=O)NCC(C)C)[C@@]([H])(CN(S(=O)(=O)c3cccc(C)c3)C1)O2,0.4938%
CN(C)C(CNC(=O)c1cc2c([nH]c1=O)CCCC2=O)c1ccsc1 (stereo not drawn),24.2%
O=C(NCc1ccccc1CN1CCOCC1)Nc1nncs1,-3.634%
CC1CCN(C(=O)c2cn(-c3ccc(C(F)(F)F)cn3)nn2)CC1,31.98%
Cc1noc(C)c1CN1CC[C@@H](OCC2CC2)[C@@H](Cc2ccccc2)C1.O=C(O)C(F)(F)F,11.54%
O=C1C(NCc2nnc3n2CCCC3)CCN1c1ccccc1 (stereo not drawn),-0.9298%
O=C(CCNS(=O)(=O)c1ccc(F)cc1)NCc1ccoc1,18.04%
COc1ccnc(N2CCc3ccc(OC(F)F)cc3C2)n1,-15.45%
CC(C)c1ncc2c(n1)CN(Cc1nnc(Cc3ccccc3)o1)CC2,33.26%
Cc1c(S(=O)(=O)NCC(C)Cn2cc(Cl)cn2)cnn1C (stereo not drawn),0.2982%
O=C1CCC(C(=O)N2CCOC(Cc3cccc4ccccc34)C2)=NN1 (stereo not drawn),19.91%
Cc1nc(C)n(CC2CCCN2Cc2nc(-c3ccoc3)no2)n1 (stereo not drawn),19.3%
COc1cccc(-c2noc(-c3ccc(NCC4CC4)nc3)n2)c1OC,28.43%
CS(=O)(=O)c1cccc(S(=O)(=O)NC(=O)CCC2CCCCC2)c1,16.66%
[H][C@]1([C@H](O)c2ccc(NC(=O)c3ccccc3OC)cc2)COCC(=O)N1,7.185%
O=C(NCc1ccccn1)C1CN(c2nc3ccccc3s2)CCN1 (stereo not drawn),6.44%
Cc1csc(CNCC2CCCN(C(=O)OC(C)(C)C)C2)n1 (stereo not drawn),-4.29%
Cc1nccc(-c2cccc(-c3ccn(CC4CCNC4)n3)c2)n1 (stereo not drawn),-9.02%
COc1cc(Nc2c(C#N)c(=O)n(C)c(=O)n2C)cc(OC)c1,10.24%
CC(c1nc(C2CC2)no1)N1CCN(Cc2cccc(F)c2F)CC1 (stereo not drawn),25.94%
O=C(c1ccc(Cl)c(Cl)c1)N1CCCCC1C1OCCO1 (stereo not drawn),2.585%
CCOCC1CN(c2ncccn2)Cc2cnn(CC3CCOCC3)c21 (stereo not drawn),20.16%
CC(=O)N1CCOC(c2c(C(=O)NCCN(C)C)sc3ccccc23)C1 (stereo not drawn),34.24%
OC1(CNCCCN2CCCc3ccccc32)CNCCOC1 (stereo not drawn),13.79%
O=C(c1cnc(Nc2ccccc2)nc1)N1CCC2(CCNCC2)CC1,8.369%
Cc1nn(C)c(N(C)C)c1CNCc1ccccc1Cn1cccn1,19.48%
CC(C)N(Cc1cccnc1)C(=O)CSc1ccc(C#N)cc1,-1.697%
CC(C)CNC(=O)c1ccc(NC(=O)NC(C)c2ccccn2)cc1 (stereo not drawn),13.62%
O=C(O)C(F)(F)F.O=C(O)C(F)(F)F.O=C(O)C(F)(F)F.[H][C@@]12CCN(Cc3cccnc3)[C@@]1([H])CCN2Cc1ccc2c(c1)OCO2,13.27%
O=C1NCc2ccccc2CC12CCN(Cc1ccccc1Cl)CC2,11.99%
O=C(O)C(F)(F)F.[H][C@@]12COC[C@]1([H])[C@H](OCc1csc(C)n1)CN2Cc1cccs1,-16.8%
O=C(O)C(F)(F)F.O=C(O)C(F)(F)F.c1cncc(-c2nnn3c2COCC(CNC2CCOCC2)C3)c1 (stereo not drawn),17.76%
CC(C)c1ncncc1C(=O)N1CCCN(Cc2cccs2)CC1,33.83%
COCc1cc(N(Cc2ccsc2)C2CC2)n2ncnc2n1,1.306%
COc1ncccc1NC(=O)N1CCCC(CNC(=O)OC(C)(C)C)C1 (stereo not drawn),3.844%
Cc1ccc([C@H]2CN(C(C)C)C[C@@H]2NS(=O)(=O)N2CCOCC2)o1,28.51%
Cn1cc(CNCCc2nccs2)c(-c2cccnc2)n1,2.105%
[H][C@]12CCN(C(=O)NC3CCCC3)CC[C@@]1([H])S(=O)(=O)N(CCC(C)C)C2,39.48%
CCCNC(=O)N1CCc2ccc(S(=O)(=O)N3CCCC3)cc2C1,24.96%
CC(=O)N(C)C(c1cccnc1)c1ccc(F)c(F)c1 (stereo not drawn),15.36%
Cc1nc(C)c(C(=O)N2CCc3c(Cl)cccc32)o1,23.06%

Some entries from above, unchanged:

| Compound | effect |
|---|---|
| `COc1ccnc(N2CCc3ccc(OC(F)F)cc3C2)n1` | -15.45% |
| `O=C1NCc2ccccc2CC12CCN(Cc1ccccc1Cl)CC2` | 11.99% |
| `CCC1c2ccccc2CCN1CCNS(C)(=O)=O` (stereo not drawn) | 12.41% |
| `O=C(NCc1ccccn1)C1CN(c2nc3ccccc3s2)CCN1` (stereo not drawn) | 6.44% |
| `O=C1CC(C(=O)NCc2ccccc2Oc2ccccc2F)CCN1` (stereo not drawn) | 15.94% |
| `CC(C)c1nc(CN2CCC(c3ccnn3CCO)CC2)no1` | 0.4771% |
| `O=C(CCNS(=O)(=O)c1ccc(F)cc1)NCc1ccoc1` | 18.04% |
| `COc1ccc(N(Cc2ccco2)C(=O)COC(C)C)cc1F` | 2.691% |